PMC8543921
These are yes or no findings as the source states them, for the method shown. In cells and extracts the contact can be indirect. Some results given as binding are weak or reduced against the parent protein; the word gives no strength. Tags and fused reporters may be left off the sequences shown.

The chains behind the UniProt entries cited, without tags or fusion partners.
UniProt F4JC97: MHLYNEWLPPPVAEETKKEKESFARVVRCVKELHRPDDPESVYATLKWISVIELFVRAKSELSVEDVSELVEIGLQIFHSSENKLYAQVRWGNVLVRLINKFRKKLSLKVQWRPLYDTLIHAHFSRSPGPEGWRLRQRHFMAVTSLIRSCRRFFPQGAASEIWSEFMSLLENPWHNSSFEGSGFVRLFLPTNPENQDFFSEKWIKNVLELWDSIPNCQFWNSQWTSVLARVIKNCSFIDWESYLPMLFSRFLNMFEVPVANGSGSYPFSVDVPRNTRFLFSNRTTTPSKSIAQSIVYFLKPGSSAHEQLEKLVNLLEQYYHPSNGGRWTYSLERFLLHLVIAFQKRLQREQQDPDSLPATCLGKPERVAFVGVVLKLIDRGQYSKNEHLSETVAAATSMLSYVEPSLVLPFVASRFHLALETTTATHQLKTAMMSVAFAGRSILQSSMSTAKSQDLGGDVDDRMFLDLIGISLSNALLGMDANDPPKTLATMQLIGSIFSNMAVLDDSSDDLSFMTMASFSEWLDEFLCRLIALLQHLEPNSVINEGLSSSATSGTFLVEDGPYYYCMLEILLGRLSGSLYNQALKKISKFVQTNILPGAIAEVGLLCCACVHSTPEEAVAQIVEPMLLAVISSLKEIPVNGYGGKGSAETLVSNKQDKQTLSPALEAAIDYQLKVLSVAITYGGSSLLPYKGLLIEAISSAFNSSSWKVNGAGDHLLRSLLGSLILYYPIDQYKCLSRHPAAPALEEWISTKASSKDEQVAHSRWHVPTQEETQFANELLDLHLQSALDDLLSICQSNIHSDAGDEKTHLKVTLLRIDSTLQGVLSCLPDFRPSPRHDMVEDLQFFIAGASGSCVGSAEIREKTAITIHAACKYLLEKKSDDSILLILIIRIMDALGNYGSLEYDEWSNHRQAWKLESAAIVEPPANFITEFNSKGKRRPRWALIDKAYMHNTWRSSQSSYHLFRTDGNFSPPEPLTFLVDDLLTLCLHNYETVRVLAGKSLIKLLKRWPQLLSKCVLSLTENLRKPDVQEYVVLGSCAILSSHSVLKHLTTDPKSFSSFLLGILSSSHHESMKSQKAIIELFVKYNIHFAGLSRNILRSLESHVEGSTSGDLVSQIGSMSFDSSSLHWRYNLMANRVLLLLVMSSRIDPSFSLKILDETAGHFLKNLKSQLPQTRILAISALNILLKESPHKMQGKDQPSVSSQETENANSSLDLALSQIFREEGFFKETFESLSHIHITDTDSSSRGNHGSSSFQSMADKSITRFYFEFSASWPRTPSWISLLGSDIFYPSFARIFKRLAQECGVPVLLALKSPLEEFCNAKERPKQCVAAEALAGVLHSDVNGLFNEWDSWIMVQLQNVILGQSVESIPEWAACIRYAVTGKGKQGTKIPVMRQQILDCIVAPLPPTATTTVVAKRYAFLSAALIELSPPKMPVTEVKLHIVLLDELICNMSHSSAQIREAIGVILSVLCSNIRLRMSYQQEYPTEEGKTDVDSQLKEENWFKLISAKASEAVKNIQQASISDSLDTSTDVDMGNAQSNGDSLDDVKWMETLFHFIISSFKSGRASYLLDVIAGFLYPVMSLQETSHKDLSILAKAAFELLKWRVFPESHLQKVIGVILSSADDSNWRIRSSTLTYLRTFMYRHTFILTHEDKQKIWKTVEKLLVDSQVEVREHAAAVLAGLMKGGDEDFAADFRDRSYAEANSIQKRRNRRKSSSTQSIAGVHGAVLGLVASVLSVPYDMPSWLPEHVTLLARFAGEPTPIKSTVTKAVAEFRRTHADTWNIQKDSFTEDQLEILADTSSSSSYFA

Biological target: T1, PAG1-FLAG (Arabidopsis thaliana) (UniProt O23715)
T1 sequence: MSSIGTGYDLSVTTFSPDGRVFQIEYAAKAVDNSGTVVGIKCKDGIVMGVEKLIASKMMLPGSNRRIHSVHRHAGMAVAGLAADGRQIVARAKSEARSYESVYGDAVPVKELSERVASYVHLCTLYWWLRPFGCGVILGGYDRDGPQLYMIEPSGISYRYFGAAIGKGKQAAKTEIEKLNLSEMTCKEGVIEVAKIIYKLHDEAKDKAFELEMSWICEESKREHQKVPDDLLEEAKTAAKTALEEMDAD
Assay: co-IP; PAG1-FLAG on anti-FLAG M2 resin from seedling lysate, 12-h time point, eluates immunoblotted; eluates made with and without 20 mM ATP, the text does not tell which for this result; less from NaCl-treated seedlings

- binding: binds
Substance: PA200 (from UniProt F4JC97 1-1811)
